Results deposited as PubChem BioAssay AID1159584 (Peter MacCallum Cancer Centre, 2016).
Shown is a random part of about 18,000 deposited reagents. The numbers tell different reagents against one gene apart. Not all columns of the deposit are shown. The record does not give: the amount of reagent, the time to read-out.

Assay: 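Genes whose loss is lethal only together with E-cadherin loss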 (primary screen)
Cell system: human MCF10A breast epithelial cells, parental and CDH1-null
Reagents: siRNA against human genes
Measured: 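ATP luminescence (CellTiter-Glo) viability per line relative to mean mock wells over all plates, and the ratio of CDH1-null to parental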
Scale: CDH1-null / parental viability ratio: higher = CDH1-null cells survive relatively better than parental; CDH1-null viability vs mock: higher = more viable CDH1-null cells

Gene | reagent no. | CDH1-null / parental viability ratio | CDH1-null viability vs mock (fraction of mock)
IFT74 (intraflagellar transport 74) | 1 | 0.93 | 0.71
GHRHR (growth hormone releasing hormone receptor) | 1 | 0.94 | 0.8
PDLIM2 (PDZ and LIM domain 2) | 1 | 0.59 | 0.48
FAM110C (family with sequence similarity 110 member C) | 1 | 1.4 | 0.77
LRPPRC (leucine rich pentatricopeptide repeat containing) | 1 | 0.88 | 0.65
XRCC6 (X-ray repair cross complementing 6) | 1 | 1.03 | 0.64
BTBD1 (BTB domain containing 1) | 1 | 1.07 | 0.98
DNMT3B (DNA methyltransferase 3 beta) | 1 | 0.9 | 0.83
MROH7 (maestro heat like repeat family member 7) | 1 | 1.15 | 0.82
BCS1L (BCS1 ubiquinol-cytochrome c reductase complex chaperone) | 1 | 0.9 | 0.54
PPP1R12C (protein phosphatase 1 regulatory subunit 12C) | 1 | 1.16 | 0.88
TOMM40 (translocase of outer mitochondrial membrane 40) | 1 | 1.16 | 1.14
RMDN1 (regulator of microtubule dynamics 1) | 1 | 1.1 | 0.87
SPAM1 (sperm adhesion molecule 1) | 1 | 0.97 | 0.83
LRRC63 (leucine rich repeat containing 63) | 1 | 0.88 | 0.95
FAM131A (family with sequence similarity 131 member A) | 1 | 1.17 | 0.82
PHYHIPL (phytanoyl-CoA 2-hydroxylase interacting protein like) | 1 | 1.09 | 0.72
SPATA31A1 (SPATA31 subfamily A member 1) | 1 | 0.98 | 0.78
SPATA31A1 (SPATA31 subfamily A member 1) | 2 | 0.81 | 0.52
SH3BGRL (SH3 domain binding glutamate rich protein like) | 1 | 0.9 | 0.84
PAXBP1 (PAX3 and PAX7 binding protein 1) | 1 | 1.17 | 0.98
CASR (calcium sensing receptor) | 1 | 0.82 | 0.88
DIRC1 (disrupted in renal carcinoma 1) | 1 | 1.2 | 0.84
FAM89A (family with sequence similarity 89 member A) | 1 | 1.11 | 0.59
JAK3 (Janus kinase 3) | 1 | 1.02 | 0.84
KDM5C (lysine demethylase 5C) | 1 | 0.91 | 0.82
KIR3DS1 | 1 | 1.15 | 0.78
AUNIP (aurora kinase A and ninein interacting protein) | 1 | 0.89 | 0.62
SEMA4C (semaphorin 4C) | 1 | 0.94 | 0.95
RIMKLB (ribosomal modification protein rimK like family member B) | 1 | 0.96 | 1.04
CES1 (carboxylesterase 1) | 1 | 0.8 | 0.72
OR6C74 (olfactory receptor family 6 subfamily C member 74) | 1 | 1.16 | 0.88
DSC3 (desmocollin 3) | 1 | 1.08 | 0.54
CHN2 (chimerin 2) | 1 | 1.32 | 0.58
FMOD (fibromodulin) | 1 | 1.1 | 0.8
SND1-IT1 (SND1 intronic transcript 1) | 1 | 1 | 0.74
ILK (integrin linked kinase) | 1 | 0.62 | 0.5
ILK (integrin linked kinase) | 2 | 0.66 | 0.46
COL14A1 (collagen type XIV alpha 1 chain) | 1 | 1.01 | 0.77
AZU1 (azurocidin 1) | 1 | 1.78 | 0.57
TIAL1 (TIA1 cytotoxic granule associated RNA binding protein like 1) | 1 | 0.89 | 0.78
EXOSC8 (exosome component 8) | 1 | 1.25 | 1.14
FKBP1B (FKBP prolyl isomerase 1B) | 1 | 0.97 | 0.94
OBSCN | 1 | 1.01 | 0.93
OBSCN | 2 | 1.06 | 0.76
CDC5L (cell division cycle 5 like) | 1 | 1.03 | 0.4

4 of these entries, reformatted.
| Gene | reagent no. | CDH1-null / parental viability ratio | CDH1-null viability vs mock (fraction of mock) |
| --- | --- | --- | --- |
| DSC3 (desmocollin 3) | 1 | 1.08 | 0.54 |
| CHN2 (chimerin 2) | 1 | 1.32 | 0.58 |
| FMOD (fibromodulin) | 1 | 1.1 | 0.8 |
| SND1-IT1 (SND1 intronic transcript 1) | 1 | 1 | 0.74 |
